The test system of data set [1] is mice. In words: Subcutaneous pentylenetetrazole (scPTZ) seizure test. Type of data set: in vivo, mouse. Particulars: mice i.p.
The subject of data set [2] is mice. Briefly: Maximal electroshock seizure (MES) test. Type of data set: in vivo, mouse. Particulars: mice i.p. (In general: Protection in the maximal electroshock model is a classic sign of anticonvulsant action.)
In data set [3] the test system is mice. Briefly: Psychomotor 6 Hz (32 mA) seizure test. Type of data set: in vivo, mouse. Particulars: mice i.p.
In data set [4] the test system is mice. The note with it: mice i.p.; cited from earlier work.
The subject of data set [5] is mice. Particulars: mice i.p.; cited from earlier work. This is another data set of the same source.
Data set [6] concerns mice. The note with it: mice i.p.; cited from earlier work. This is another data set of the same source.
For data set [7], the system named is mice. Set-up: method as in PMID 32929733. Particulars: mice i.p.; cited from earlier work.

Like-named read-outs stand apart in the source and are kept apart here.

`CCC1(C)CC(=O)NC1=O` (centres unmarked) [ETX, ethosuximide, reference compound]: the “PI (TD50/ED50), scPTZ” value in the data set on mice [1] is 2.3 (scPTZ).
On to `CN(C)C1CC(=O)N([C@@H](C(=O)N2CCN(c3cccc(OC(F)(F)F)c3)CC2)c2ccccc2)C1=O.Cl` (stereo partly drawn) [(C1-R)-32, 3-Dimethylamino-1-((R)-2-oxo-1-phenyl-2-(4-(3-(trifluoromethoxy)phenyl)piperazin-1-yl)ethyl)pyrrolidine-2,5-dione hydrochloride], for which the “PI (TD50/ED50), MES” value with mice [2] was 2.7. The “PI (TD50/ED50), 6 Hz (32 mA)” value in the data set with mice [3] was 2.5. Also, the “PI (TD50/ED50), scPTZ” value in the data set on mice [1] was 1.6.
For the compound `O=C([C@@H](c1ccccc1)N1C(=O)CCC1=O)N1CCN(c2cccc(C(F)(F)F)c2)CC1` [II], in the data set on mice [4], the “PI (TD50/ED50), scPTZ” value was 8.5. Besides, the “PI (TD50/ED50), 6 Hz (32 mA)” value with mice [5] is listed as 12.0. Besides, the “PI (TD50/ED50), MES” value with mice [6] is given as 13.0.
`CN(C)C1CC(=O)N(C(C(=O)N2CCN(c3cccc(OC(F)(F)F)c3)CC2)c2ccccc2)C1=O.Cl` (centres unmarked) [Compound 17, 3-Dimethylamino-1-(2-oxo-1-phenyl-2-(4-(3-(trifluoromethoxy)phenyl)piperazin-1-yl)ethyl)pyrrolidine-2,5-dione hydrochloride]: the “PI (TD50/ED50), MES” value with mice [2] was 1.6. Also, the “PI (TD50/ED50), 6 Hz (32 mA)” value with mice [3] came to 3.7. The “PI (TD50/ED50), scPTZ” value with mice [1] is given as 2.2.
Take `O=C(C(c1ccccc1)N1C(=O)CCC1=O)N1CCN(c2cccc(C(F)(F)F)c2)CC1` (centres unmarked) [I]: the “PI (TD50/ED50), scPTZ” value with mice [4] is reported as 3.3. Also, the “PI (TD50/ED50), 6 Hz (32 mA)” value in the data set on mice [5] is recorded as 8.7. In addition, the “PI (TD50/ED50), 6 Hz (44 mA)” value with mice [7] was 2.7. Besides, the “PI (TD50/ED50), MES” value in the data set with mice [6] was 8.2.
On to `CCN(CC)C1CC(=O)N(C(C(=O)N2CCN(c3cccc(C(F)(F)F)c3)CC2)c2ccccc2)C1=O.Cl` (centres unmarked) [Compound 15, 3-(Diethylamino)-1-(2-oxo-1-phenyl-2-(4-(3-(trifluoromethyl)phenyl)piperazin-1-yl)ethyl)pyrrolidine-2,5-dione hydrochloride], for which, in the data set on mice [2], the “PI (TD50/ED50), MES” value is listed as 3.2.
Consider `CN(C)C1CC(=O)N([C@@H](C(=O)N2CCN(c3cccc(C(F)(F)F)c3)CC2)c2ccccc2)C1=O.Cl` (stereo partly drawn) [(C1-R)-31, 3-Dimethylamino-1-((R)-oxo-1-phenyl-2-(4-(3-(trifluoromethyl)phenyl)-piperazin-1-yl)ethyl)pyrrolidine-2,5-dione hydrochloride], for which the “PI (TD50/ED50), MES” value in the data set with mice [2] is on record as 1.6. Moreover, the “PI (TD50/ED50), 6 Hz (32 mA)” value with mice [3] is given as 1.9. In addition, in the data set with mice [1], the “PI (TD50/ED50), scPTZ” value is reported as 1.5.
With `CNC1CC(=O)N(C(C(=O)N2CCN(c3cccc(C(F)(F)F)c3)CC2)c2ccccc2)C1=O.Cl` (centres unmarked) [Compound 13, 3-(Methylamino)-1-(2-oxo-1-phenyl-2-(4-(3-(trifluoromethyl)phenyl)piperazin-1-yl)ethyl)pyrrolidine-2,5-dione hydrochloride], the “PI (TD50/ED50), 6 Hz (32 mA)” value in the data set with mice [3] turned out to be 1.7. In addition, the “PI (TD50/ED50), scPTZ” value with mice [1] is listed as 1.9.
As to `CN(C)C1CC(=O)N(C(C(=O)N2CCN(c3cccc(C(F)(F)F)c3)CC2)c2ccccc2)C1=O.Cl` (centres unmarked) [Compound 14, 3-(Dimethylamino)-1-(2-oxo-1-phenyl-2-(4-(3-(trifluoromethyl)phenyl)-piperazin-1-yl)ethyl)pyrrolidine-2,5-dione hydrochloride], the “PI (TD50/ED50), MES” value in the data set on mice [2] was 3.4. Also, the “PI (TD50/ED50), 6 Hz (32 mA)” value with mice [3] is 5.4.
`CCCC(CCC)C(=O)O` [VPA, valproic acid, reference compound]: the “PI (TD50/ED50), MES” value in the data set with mice [2] stood at 1.7. In addition, in the data set on mice [7], the “PI (TD50/ED50), 6 Hz (44 mA)” value is recorded as 2.3. Moreover, the “PI (TD50/ED50), 6 Hz (32 mA)” value in the data set with mice [3] was determined as 3.3. For the same compound, the “PI (TD50/ED50), scPTZ” value with mice [1] is reported as 1.8.
As to `COC[C@@H](NC(C)=O)C(=O)NCc1ccccc1` [LCS, lacosamide, reference compound], the “PI (TD50/ED50), MES” value with mice [2] is given as 5.0. Moreover, in the data set with mice [7], the “PI (TD50/ED50), 6 Hz (44 mA)” value is 6.7. Besides, in the data set with mice [3], the “PI (TD50/ED50), 6 Hz (32 mA)” value worked out at 8.8.

(Values after paper PMC8658016, “Identification of New Compounds with Anticonvulsant and Antinociceptive Properties in a Group of 3-substituted (2,5-dioxo-pyrrolidin-1-yl)(phenyl)-Acetamides” (International Journal of Molecular Sciences, 2021).)
